The results in this text go back to PubChem BioAssay AID493014 (National Center for Advancing Translational Sciences (NCATS), 2011).

By AC50 is commonly meant the midpoint of the concentration-response curve, whichever way the signal moves.

This experiment in a line: qHTS Assay to Find Inhibitors of Chronic Active B-Cell Receptor Signaling. The note with it: ABC-DLBCL IkBa-CBG/CBR reporter, luminescence ratio (green luciferase fused to IkBa over red control in TMD8 lymphoma cells), 4 h. An outline of the steps: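 Concentration-response series (up to 46 uM) were applied to TMD8 dual-reporter cells for 4 h at 37C with doxycycline. Green/red ratio, after filter-overlap correction, defined %Activity; red signal alone was normalised to basal cells and zero luminescence.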
A general note: Quantitative high-throughput screening tests each substance at several concentrations.

[1] abbreviates: measured here: CBR red luminescence, cell number.
Setting [2] is: measured here: IkBa-CBG green luminescence.

Some of the results follow. These are further read-outs of the screen, such as a control signal, another cell line or another target. No call is given for them. Compounds called inactive in the main read-out are mostly missing here. Potencies come from curve fits of mixed quality, noted in brackets.

In the case of `O=C(CCC1CCCCC1)NCc1cccs1`, under setting [1], the AC50 is 2.91 µM [rising, partial curve, poor fit].

In the case of `CCCCn1c(-c2csc3ccccc23)n[nH]c1=S`, the AC50 under setting [1] was 5.8 µM [falling, single point].

As to `N#C/C(=N\Nc1ccccc1Cl)C(=O)c1ccccc1`, under setting [1], the AC50 is 8.91 µM [falling, partial curve].

Take `Cc1ccc([N+](=O)[O-])cc1NCC(=O)NN`: the AC50 under setting [1] is 35.5 µM [falling, single point].

As for `CC(Sc1nc2ccccc2c(=O)n1CCc1ccc(S(N)(=O)=O)cc1)C(=O)NC(N)=O` (centres undefined), the AC50 under setting [1] is 0.794 µM [falling, full curve, poor fit].

In the case of `O=C(CNC(=O)c1ccc2c(c1)OCO2)N/N=C(Br)/C=C/c1ccccc1`, the AC50 by setting is: under setting [1], 8.2 µM [falling, partial curve]; under setting [2], 20.6 µM [falling, single point].

For `Cc1ccc(S(=O)(=O)N(C)C)cc1NC(=O)c1cncc(Br)c1`, the AC50 under setting [1] is 18.4 µM [falling, single point].

On to `CCCN(CCC)CCCNC(=O)C1c2cc(OC)c(OC)cc2C(=O)N(C)C1c1cccs1` (centres undefined), for which the AC50 under setting [1] was 2.59 µM [rising, partial curve].

For `CCC(C)NC(=O)CO/N=C/c1ccccc1OC(F)F` (centres undefined), the AC50 under setting [1] is 32.6 µM [rising, partial curve, poor fit].

Consider `CCN(CC)S(=O)(=O)c1cc(C(=O)NCCN2CCOCC2)ccc1Cl`, for which the AC50 under setting [1] is 1.12 µM [falling, full curve].

Turning to `c1ccc2cc(CNCc3cccc4ccccc34)ccc2c1`, the AC50 under setting [1] was 7.94 µM [rising, partial curve, poor fit].

As to `Cc1ccc(-n2nc3cc(C)c(N)cc3n2)cc1`, the AC50 under setting [1] was 20.6 µM [falling, single point].

Consider `O=C(NCCOc1ccccc1)c1ccccc1NC(=O)C1CCCO1` (centres undefined), for which, under setting [1], the AC50 was 3.98 µM [rising, full curve, poor fit].

In the case of `CC(/C=N/Nc1nnc2c(n1)[nH]c1ccccc12)=C\c1ccco1`, under setting [1], the AC50 was 23.1 µM [falling, partial curve].

On to `Cc1cc2n(n1)SC(Nc1cccc3ccccc13)N2` (centres undefined), for which, under setting [1], the AC50 is 18.4 µM [rising, single point].

With `O=C(N/N=C\c1ccncc1)c1ccccc1O`, under setting [1], the AC50 is 1.58 µM [falling, full curve].

As to `COc1ccc(CCNC(=O)CN2C(=O)CCSc3ccccc32)c(OC)c1`, the AC50 under setting [1] was 17.8 µM [falling, single point].

For the molecule `CN(C)S(=O)(=O)N(CC(=O)Nc1ccc(F)c(F)c1)c1ccccc1`, the AC50 under setting [1] was 1.46 µM [falling, partial curve, poor fit].

Turning to `N#CCC(=O)Nc1ccc(C(=O)NNC(=S)NC2CC2)cc1`, under setting [1], the half-maximal activity concentration (AC50) is 25.9 µM [falling, single point].

Take `O=C(C1CCCN(S(=O)(=O)c2ccc(F)cc2)C1)N1CCCC1` (centres undefined): the AC50 under setting [1] is 0.794 µM [falling, full curve].

Take `COc1nonc1NC(=O)CSc1nc2ccccc2[nH]1`: the AC50 under setting [1] is 7.94 µM [falling, partial curve, poor fit].

With `C/C(CC(=O)Nc1ccc(OCc2ccccc2)cc1)=N\NC(=O)C(=O)Nc1ccc(C)c(Cl)c1`, under setting [1], the AC50 was 31.6 µM [falling, single point].

`O=C(CCC1CCCC1)NNC(=O)c1ccccc1O`: the AC50 under setting [1] was 29.1 µM [falling, single point].

With `Cc1ccc(Cn2c(NC(=O)c3ccco3)nc3ccccc32)cc1`, the half-maximal activity concentration (AC50) under setting [1] is 6.31 µM [falling, single point].

Regarding `COCCCNC(=O)COC(=O)c1ccc(-c2nc3ccccc3s2)s1`, the AC50 under setting [1] was 3.16 µM [falling, full curve].

For `COc1ccc(S(=O)(=O)N2CCOCC2)cc1NC(=O)c1cc(C)oc1C`, under setting [1], the AC50 is 29.1 µM [falling, single point].

Regarding `Cc1ccc(SCC(=O)Nc2ccc(-c3nnc(-c4ccco4)o3)cc2)cc1`, the AC50 under setting [1] was 31.6 µM [rising, partial curve, poor fit].

As to `O=C(NC(=S)Nc1ccc(F)c(Cl)c1)C1CC1`, under setting [2], the AC50 was 17.8 µM [falling, partial curve, poor fit].

For the molecule `Cc1ccc(S(=O)(=O)CCc2nc3ccccc3[nH]2)cc1`, the AC50 under setting [1] was 0.891 µM [rising, partial curve, poor fit].

As for `COc1ccc(C(=O)CC(=O)C(=O)Nc2ccc(C)cc2Cl)cc1`, under setting [1], the AC50 is 35.5 µM [rising, partial curve, poor fit].

With `COc1ccccc1NC(=O)c1nc(S(=O)(=O)Cc2ccccc2)ncc1Cl`, under setting [1], the AC50 was 12.6 µM [falling, single point].

Take `COc1ccc(S(=O)(=O)n2nc(-c3ccc(Cl)cc3)cc2N)cc1OC`: the AC50 under setting [1] is 11.6 µM [falling, single point].

For `O=C(CSc1nc(-c2ccc(Cl)cc2)cs1)Nc1cccc([N+](=O)[O-])c1`, the AC50 under setting [1] was 16.4 µM [falling, single point].

As to `CC1CCCC(C)N1CC(O)COCc1ccccc1` (centres undefined), the AC50 under setting [1] was 12.6 µM [rising, single point].

With `CN(C)S(=O)(=O)c1ccc(Cl)c(NC(=O)CN2CCN(c3ccccn3)CC2)c1`, the AC50 under setting [1] was 35.5 µM [rising, single point].

As for `Cc1ccc(S(=O)(=O)N2CCOCCOCCOCCOCCOCC2)cc1`, the half-maximal activity concentration (AC50) under setting [1] is 0.112 µM [rising, full curve, poor fit].

With `CC1CCN(CC(=O)N2CCCc3c2c(=O)oc2ccc(OCc4ccccc4)cc32)CC1`, the AC50 under setting [1] was 7.31 µM [falling, partial curve, poor fit].

Turning to `CCCOc1ccc(Br)cc1CSC(=N)N`, the AC50 under setting [1] is 29.1 µM [falling, single point].

Take `O=S1(=O)C=CC(Nc2cccc(Cl)c2)C1` (centres undefined): the AC50 under setting [1] was 29.1 µM [falling, single point].

On to `CSc1ccccc1OCc1cc(C(=O)N2CCC(c3ccncc3)CC2)no1`, for which the AC50 under setting [1] was 35.5 µM [falling, single point].

`O=S(=O)(NCC1CCN(S(=O)(=O)c2ccccc2)CC1)c1ccccc1`: under setting [1], the AC50 was 32.6 µM [rising, single point].

Take `O=C1Nc2ccc(Br)cc2C1Cc1ccccc1F` (centres undefined): the AC50 under setting [1] is 17.8 µM [falling, single point].

Regarding `O=C(O)c1c(NC(=O)N2CCOCC2)sc2c1CCCC2`, under setting [1], the AC50 is 22.4 µM [falling, single point].
